# According to PubChem BioAssay AID662 (National Center for Advancing Translational Sciences (NCATS), 2007):
# This is one part of the list. The main result of the screen is listed elsewhere. These columns were measured beside it and carry no call. Most of these compounds were active or inconclusive in the main read-out, so they are no random draw. Words in brackets tell the shape of the fitted curve; partial curves, single points and poor fits give uncertain potencies.
# Experiment: Cell signaling CRE-BLA (Fsk stim)
# Details: CHO CRE-bla reporter (cAMP response element driving beta-lactamase), forskolin EC10, beta-lactamase ratio; measured here: 460 nm blue channel
# Procedure, shortened: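 Cells were plated overnight at 37 °C, exposed to compound titrations plus EC10 NKH 477 for 3 h, then given CCF4 dye for 2 h at room temperature. Blue/green (460/530 nm) ratio was converted to %Activity and AC50 values calculated.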
row,SMILES,AC50
1,NC(=O)CN1C(=O)C2C3C=CC(C3)C2C1=O (stereo unspecified),"0.1 µM [falling, full curve]"
2,O=S(=O)(NC1CCN(Cc2ccccc2)CC1)c1cccc2cccnc12,"0.126 µM [falling, full curve, poor fit]"
3,CCOC(=O)c1[nH]c(C)c(C(=O)OCC(=O)N2CCCCC2C)c1C (stereo unspecified),"12.6 µM [rising, single point]"
4,O=C(O)C1CCCCC1C(=O)N1CC=C(c2ccccc2)CC1 (stereo unspecified),"0.398 µM [falling, partial curve]"
5,N#Cc1ccccc1-c1cncnc1NCc1cccnc1,"5.01 µM [rising, partial curve]"
6,CCOc1ccc2c(c1)c1nnc(SCC(=O)N3CCCCC3C)nc1n2C (stereo unspecified),"0.398 µM [rising, full curve]"
7,CC(C)C[C@H]1C(=O)N2CCC[C@@H]2[C@]2(O)O[C@](NC(=O)[C@@H]3C=C4c5cccc6[nH]c(Br)c(c56)C[C@H]4N(C)C3)(C(C)C)C(=O)N12,"2.51 µM [rising, full curve, poor fit]"
8,COc1ccccc1CNC(=O)C(CCSC)NS(=O)(=O)c1ccc2c(c1)oc(=O)n2C (stereo unspecified),"0.0794 µM [falling, partial curve]"
9,COc1ccc(C(=O)N2CCN(c3ccc(C)cc3)CC2)cc1OC,"10 µM [rising, partial curve]"
10,COc1ccc(Oc2ncc3nc(-c4cc(F)cc(F)c4)c(=O)n(C)c3n2)cc1,"25.1 µM [rising, single point]"
11,CC1CCC(C(=O)NC(C(=O)NCCN2CCC(C)CC2)C(C)C)CC1 (stereo unspecified),"0.1 µM [falling, full curve]"
12,COc1cc(OC)c(-c2nn3c(C4CCCCC4)nnc3s2)cc1OC,"3.98 µM [rising, partial curve]"
13,CCOc1ccc(OCC)c(Nc2cc(C)nc3nc(C)nn23)c1,"7.94 µM [rising, partial curve]"
14,N#CCSc1nc2scc(-c3cccs3)c2c(=O)n1CCc1ccccc1,"0.501 µM [rising, full curve]"
15,NC(N)=NC(=O)c1nc(Cl)c(N)nc1N,"5.01 µM [rising, single point]"
16,c1coc(CNc2ncnc3c2oc2ccccc23)c1,"5.01 µM [rising, partial curve]"
17,COc1ccc(-n2nnnc2S(=O)(=O)Cc2ccc(C(=O)O)cc2)cc1,"0.00398 µM [falling, full curve, poor fit]"
18,COC(=O)c1ccccc1NC(=O)c1cc(-c2cccc(OC)c2)on1,"0.251 µM [falling, full curve, poor fit]"
19,COc1ccc(S(=O)(=O)Cc2ccc(C(=O)N3CCN(c4cc(Cl)ccc4C)CC3)o2)cc1,"10 µM [falling, partial curve]"
20,c1ccc(-c2ccc(N3CCCC4(CCNCC4)C3)cc2)cc1,"25.1 µM [falling, single point]"
21,O=c1oc2c(O)c(O)cc3c(=O)oc4c(O)c(O)cc1c4c23,"0.0501 µM [rising, full curve, poor fit]"

# Two entries from above, with bars between the fields:
row | SMILES | AC50
8 | COc1ccccc1CNC(=O)C(CCSC)NS(=O)(=O)c1ccc2c(c1)oc(=O)n2C (stereo unspecified) | 0.0794 µM [falling, partial curve]
15 | NC(N)=NC(=O)c1nc(Cl)c(N)nc1N | 5.01 µM [rising, single point]

# (list continues)

row,SMILES,AC50
1,CCc1nnc(NC(=O)CSc2nnc(-c3ccoc3C)n2-c2ccccc2)s1,"25.1 µM [rising, single point]"
2,COc1cccc(C2=NOC(C(=O)Nc3ccc(C(C)=O)cc3)C2)c1 (stereo unspecified),"15.8 µM [rising, partial curve]"
3,CC(=O)c1ccc(N2CCN(C(=O)c3cc(-c4ccc5c(c4)OCO5)nc4ccccc34)CC2)cc1,"0.00398 µM [falling, full curve, poor fit]"
4,Cc1cc(NC(=O)CSc2nc3c(c(=O)n(C)c(=O)n3C)n2C(C)C)no1,"3.16 µM [rising, full curve, poor fit]"
5,CC(=O)C1=C(C)N=c2s/c(=C/c3ccc4c(c3)OCO4)c(=O)n2C1c1ccc(N(C)C)cc1 (stereo unspecified),"0.0126 µM [falling, full curve, poor fit]"
6,Cc1cc(NC(=O)CSc2nnc(-c3ccoc3C)n2N)no1,"3.16 µM [falling, full curve]"
7,c1ccc2c(N3CCNCC3)nc(-c3ccc4c(c3)OCO4)nc2c1,"10 µM [rising, partial curve]"
8,CN(CCC#N)c1ncnc2scc(-c3ccccc3)c12,"31.6 µM [falling, partial curve, poor fit]"
9,Cc1cc(C)c(C#N)c(N2CCN(CCOc3ccc(Cl)cc3)CC2)n1,"20 µM [falling, partial curve, poor fit]"
10,CN(Cc1ccccc1)c1nc2c(c(=O)[nH]c(=O)n2C)n1CCCc1ccccc1,"15.8 µM [falling, single point]"
11,CCOC(=O)c1ccc(Nc2cc(C)nc3nc(C)nn23)cc1,"6.31 µM [rising, partial curve]"
12,COc1ccc(OC)c(-c2cc(C(=O)Nc3cccc(Cl)c3)no2)c1,"5.01 µM [rising, partial curve, poor fit]"
13,COc1ccc(CNC(=O)c2c(O)c3ccccc3n(C)c2=O)cc1OC,"1.26 µM [rising, partial curve]"
14,COC(=O)c1ccccc1NC(=O)c1sc(=S)n(C)c1N,"2.51 µM [rising, full curve]"
15,COc1ccc(NC(=O)C2CCCN(c3c4c(nc5ncnn35)CCC4)C2)cc1OC (stereo unspecified),"10 µM [rising, partial curve]"
16,CCCCn1c(=O)n(CC(O)c2ccccc2)c(=O)c2c1ncn2C1CCCC1 (stereo unspecified),"1 µM [falling, single point]"
17,Cc1ccc(N2CC(C(=O)N3CCN(c4ccccc4)CC3)CC2=O)cc1 (stereo unspecified),"3.98 µM [rising, partial curve]"
18,N=C1C(c2ccccc2)=C(O)C2CCc3ccccc3N12 (stereo unspecified),"12.6 µM [falling, partial curve]"
19,CCOc1ccc(Nc2oc(-c3cccs3)nc2C#N)cc1,"12.6 µM [rising, partial curve]"
20,O=C(NCc1n[nH]c(=S)n1-c1ccccc1)c1ccc(S(=O)(=O)N2CCOCC2)cc1,"0.00398 µM [falling, full curve, poor fit]"
